In PMC3672107:
No constants are given. Whether binding was seen depends on the method and setting. In cells and extracts the contact can be indirect. Some binding calls cover weakened binding; strength is not graded here. Tags and fused reporters may be left off the sequences shown.

Protein sequences, listed by entry. Tags and fused reporters are not part of them. Residues count along the entry.
UniProt P56817, residues 46-501: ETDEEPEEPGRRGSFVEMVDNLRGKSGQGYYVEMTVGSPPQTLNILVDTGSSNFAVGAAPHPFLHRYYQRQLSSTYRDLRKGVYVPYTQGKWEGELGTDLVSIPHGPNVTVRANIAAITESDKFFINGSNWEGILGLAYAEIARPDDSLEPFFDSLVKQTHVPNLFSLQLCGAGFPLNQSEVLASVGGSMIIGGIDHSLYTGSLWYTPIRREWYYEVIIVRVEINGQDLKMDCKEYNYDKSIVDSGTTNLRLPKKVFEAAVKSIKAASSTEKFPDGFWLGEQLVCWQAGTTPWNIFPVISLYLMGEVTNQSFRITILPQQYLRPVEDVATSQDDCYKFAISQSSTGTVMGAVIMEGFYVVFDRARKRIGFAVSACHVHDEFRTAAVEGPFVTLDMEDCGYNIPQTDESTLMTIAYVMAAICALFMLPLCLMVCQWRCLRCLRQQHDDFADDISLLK
UniProt P05067, residues 18-770: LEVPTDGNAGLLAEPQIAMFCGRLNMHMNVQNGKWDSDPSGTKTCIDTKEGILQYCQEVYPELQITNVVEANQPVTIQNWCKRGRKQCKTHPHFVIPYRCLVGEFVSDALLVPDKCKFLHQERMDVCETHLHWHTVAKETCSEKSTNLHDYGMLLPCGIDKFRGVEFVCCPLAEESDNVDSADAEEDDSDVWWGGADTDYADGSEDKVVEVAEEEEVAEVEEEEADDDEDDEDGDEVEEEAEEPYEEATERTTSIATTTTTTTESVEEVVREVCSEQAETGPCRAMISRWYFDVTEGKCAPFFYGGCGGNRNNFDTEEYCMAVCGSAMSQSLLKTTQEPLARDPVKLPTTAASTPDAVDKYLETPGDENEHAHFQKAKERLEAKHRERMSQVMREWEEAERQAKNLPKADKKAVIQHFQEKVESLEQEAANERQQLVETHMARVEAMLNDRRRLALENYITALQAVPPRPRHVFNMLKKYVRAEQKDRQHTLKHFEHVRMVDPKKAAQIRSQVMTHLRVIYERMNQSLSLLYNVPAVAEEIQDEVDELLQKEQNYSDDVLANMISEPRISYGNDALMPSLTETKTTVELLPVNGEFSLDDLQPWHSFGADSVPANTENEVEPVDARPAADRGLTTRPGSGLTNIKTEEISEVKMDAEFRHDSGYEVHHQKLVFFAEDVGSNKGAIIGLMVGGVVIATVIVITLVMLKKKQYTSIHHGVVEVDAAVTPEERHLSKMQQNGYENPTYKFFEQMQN

Target: T1, Leucine rich repeat transmembrane protein 3 (LRRTM3) with a V5 tag (human) (UniProt Q86VH5)
T1 sequence: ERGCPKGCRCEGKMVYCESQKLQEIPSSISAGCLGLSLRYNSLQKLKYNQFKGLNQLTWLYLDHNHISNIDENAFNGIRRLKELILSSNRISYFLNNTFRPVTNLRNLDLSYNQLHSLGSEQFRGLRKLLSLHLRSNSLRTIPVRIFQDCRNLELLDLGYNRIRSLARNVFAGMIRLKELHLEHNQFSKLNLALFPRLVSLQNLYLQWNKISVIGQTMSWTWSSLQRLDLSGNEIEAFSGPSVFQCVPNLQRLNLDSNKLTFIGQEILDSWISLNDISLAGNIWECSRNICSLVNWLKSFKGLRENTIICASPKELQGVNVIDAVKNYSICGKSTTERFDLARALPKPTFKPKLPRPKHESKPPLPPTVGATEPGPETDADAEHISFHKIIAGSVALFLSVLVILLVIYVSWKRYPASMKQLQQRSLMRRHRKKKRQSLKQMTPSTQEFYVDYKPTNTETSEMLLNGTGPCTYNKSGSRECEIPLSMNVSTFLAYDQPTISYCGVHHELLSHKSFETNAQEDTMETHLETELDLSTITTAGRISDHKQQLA
Assay: co-IP; HEK293T cells transfected with LRRTM3-V5 and BACE1-GFP; lysed in IP buffer (150mM NaCl, 50mM Tris pH 7.5, 0.1% Triton); 1 ug of anti-V5, anti-GFP or CT20 antibody on Dynabeads Protein G, 30 minutes with the lysate, extensively washed; Western blot of the eluted immunocomplexes

binding	Substance
binds	BACE1 with a GFP tag (from UniProt P56817 46-501) (enzyme)
binds	Amyloid precursor protein (APP), endogenous in HEK293T cells (from UniProt P05067 18-770)
